Source: PMC5482573
These are yes or no findings as the source states them, for the method shown. A result given as binding can be weak or reduced; the word gives no strength.

Target: γ-COP (M. musculus, in recombinant coatomer) (M. musculus)
Test: cryo-EM structure; cryo-electron tomography and subtomogram averaging of the COPI leaf, 9.2 Å; coat assembled in vitro from coatomer (840 nM), Arf1 (2 μM), GTPγS, ARNO and GUVs, 37°C, 50 mM HEPES pH 7.4, 50 mM KOAc, 1 mM MgCl2; both purified

B1: β-COP (M. musculus, in recombinant coatomer) (protein, UniProt Q9JIF7 1-953)
chain: MTAAENVCYTLINVPMDSEPPSEISLKNDLEKGDVKSKTEALKKVIIMILNGEKLPGLLMTIIRFVLPLQDHTIKKLLLVFWEIVPKTTPDGRLLHEMILVCDAYRKDLQHPNEFIRGSTLRFLCKLKEAELLEPLMPAIRACLEHRHSYVRRNAVLAIYTIYRNFEHLIPDAPELIHDFLVNEKDASCKRNAFMMLIHADQDRALDYLSTCIDQVQTFGDILQLVIVELIYKVCHANPSERARFIRCIYNLLQSSSPAVKYEAAGTLVTLSSAPTAIKAAAQCYIDLIIKESDNNVKLIVLDRLVELKEHPAHERVLQDLVMDILRVLSTPDLEVRKKTLQLALDLVSSRNVEELVIVLKKEVIKTNNVSEHEDTDKYRQLLVRTLHSCSVRFPDMAANVIPVLMEFLSDSNEAAAADVLEFVREAIQRFDNLRMLIVEKMLEVFHAIKSVKIYRGALWILGEYCSTKEDIQSVMTEVRRSLGEIPIVESEIKKEAGELKPEEEITVGPVQKLVTEMGTYATQSALSSSRPTKKEEDRPPLRGFLLDGDFFVAASLATTLTKIALRYVALVQEKKKQNSFVAEAMLLMATILHLGKSSLPKKPITDDDVDRISLCLKVLSECSPLMNDIFNKECRQSLSQMLSAKLEEEKLSQKKESEKRNVTVQPDDPISFMQLTAKNEMNCKEDQFQLSLLAAMGNTQRKEAADPLASKLNKVTQLTGFSDPVYAEAYVHVNQYDIVLDVLVVNQTSDTLQNCTLELATLGDLKLVEKPSPLTLAPHDFANIKANVKVASTENGIIFGNIVYDVSGAASDRNCVVLSDIHIDIMDYIQPATCTDAEFRQMWAEFEWENKVTVNTNMTDLNDYLQHILKSTNMKCLTPEKALSGYCGFMAANLYARSIFGEDALANVSIEKPVHQGPDAAVTGHIRIRAKSQGMALSLGDKINLSQKKTSL
Q: Which binding does the source give for B1 here?
A: binds
